Results as given in publication PMC6797480.
These are yes or no findings as the source states them, for the method shown. In cells and extracts the contact can be indirect. A yes stands for co-enrichment or nearness to the bait. Other partners may have been found.

Target: C-terminal FLAG tagged-Piwi4 (Aedes aegypti) (UniProt Q171B3)
Assay: affinity purification with mass spectrometry; C-terminal FLAG tagged-Piwi4 expressed in Aag2 cells as bait; lysis in IP-buffer (10 mM Tris pH 7.5, 2.5 mM EDTA, 250 mM NaCl) + 0.5% NP-40; anti-FLAG beads 6-16 hr at 4°C; eluted with 3x Flag peptide; Orbitrap LC-MS, MaxQuant

B1: Argonaute-2 (protein, UniProt C5J0H4 1-992)
chain: MILNARYLYIPCRQKQQQQQQQPQQQQQHQQKQQSQQQQQQQQQQQRSKEQGSQQQQRPQQQAQQQQPSQQQQQSQKQQHPQQQQQQRPQKQQQQFQQDQRPQQQQQQLQKQQQQQGQSWRPQSHDPSPASGSHSHSSSPSHAAALERVEEDFSKIKIDKQKIHSSALLPVLMRPNAHGTRGRAIKVEVNYIQLLLERLIPTAYHYDVDIQPAASRKWQRLAFSEFTKQMFPNHGFAFDGHKNAYAARRLQADVYEQEVKVRDEGRERRFKVAMKEAAVLDMTCLKTYMNNGSTLDKPMSAIQCLDIVLRTAYENNPRFIKFKKSIYVKPDRPDDIGSNHELWYGLFQSALLGARPFLNIDVSHKAFPTGGPVLRILVDMNRGQVPDRVTDWMSRDLHDFLKGMELSYTGPDGVSKLFKYNSIKSPANQQKFKLENGTEMTIDQYFRSKNKQLRYPSLPVLHVGSLVRNVMLPIELCSIPPGQALNKKHPDQCTQFIIRKSATDTATRKRKIMDLFNQIGYNNAPTIKEFGVSVGNNFETVDGRILDPPELSYRNDRRVKPMRGVWRADNMNFIIPSTEITRRELSWTILNLDGRTRPDAIDEFGRNIYQMSLKQGVQLQQFSMKNNFYEPRDMRFAVKDLDNIFDELKKRKIDLVFVVIPSPGRDGDVYAKVKQKAELCVGLLTQCIKSFTLDKKRGDMSTISNIWLKINAKTNGSNHVLAKNFKPPIARKTVMYVGADVTHPSPEQTNIPSVVGVAASYDLEGFRYNCCYRLQGPKDEMIRDLQNIVIKQLRQFKQTNQSLPELIMYYRDGVSEGQFQEVLTIELRAMQAAAASVQQGYKPNITFIVVQKRHHARFFPTANCPTEGRNNNVQPGTIVDRYITAPNQYQFFLVSHAAVQGVAKPTKYCVLYDDENCNPDQLQALTYYLCHMFTRCNRAVSYPAPTYYAHLAAYRGRVYIKDRPLNMNNLTKEYERMQIRTEIQDGHPMFFV
binding: binds
